From US4308181A (American Home Products Corporation, priority 1980, dated 1981) come the findings set out here.

Series [1] can be described thus: general procedure: Boc solid-phase peptide synthesis; benzhydrylamine hydrochloride resin; diisopropylcarbodiimide, hydroxybenzotriazole. Particulars: whole synthesis, scale 7 g resin, HOAc.
Series [2] in a line: general procedure: Boc solid-phase peptide synthesis; benzhydrylamine hydrochloride resin (Bachem); diisopropylcarbodiimide, hydroxybenzotriazole. To be noted: whole synthesis, scale of the general procedure 7 g resin, acetate.

HELM strings list residues between dots; [ac] is acetyl, [am] amide, other brackets name non-standard units.

“N-acetylseryl-L-histidyl-L-leucyl-L-valinamide, acetate” displayed a crude mass in series [1] of 733 mg.

In turn, PEPTIDE1{[ac].G.S.H.L.[am]}$$$$V2.0 showed a crude mass in series [1] of 697 mg. Moreover, the difficulty met entry in series [2] is “After successive washed with DMF (1 time), MeCl2 (2 times), MeOH (1 time) and MeCl2 (3 times), the resin in ninhydrin trace positive and is deprotected with 50% TFA in MeCl2 (containing 0.5% DTE) for”.
